Source: patent publication US20170112948A1, “Inorganic-organic hybrid compound” (Karlsruher Institut für Technologie, priority 2014, published 2017)

Test system: lipopolysaccharide (LPS) stimulated peritoneal macrophages (MF)
Experiment: anti-inflammatory activity in LPS-stimulated peritoneal macrophages
Assay type: cell-based
Conditions: LPS-stimulated peritoneal macrophages freshly isolated from mice; increasing concentration 10^−10 to 10^−5 molar; in comparison to dexamethasone (DM); FIG. 5
Source text: Under physiological conditions, the active ingredient is released from the active ingredient anion very slowly, over a period of several hours to several days, and is able to develop its activity at the locus of action. This is shown in FIG. 4 for slow release in a laboratory suspension. The active ingredient anions here may be selected from a very broad range in terms of composition, and cover a wide range of possible clinical pictures. In addition to the release of an active ingredient, the inorganic-organic hybrid compounds of the invention can be located by the fluorescence of an additionally incorporated fluorescent dye anion. […] In order to bring the nanoparticles in vivo to a specific locus of action, the inorganic-organic hybrid nanoparticles may additionally be functionalized with a peptide, antibody or oligonucleotide which is directed against a disease-specific target.

## C[C@H]1C[C@H]2[C@@H]3CCC4=CC(=O)C=C[C@]4(C)[C@@]3(F)[C@@H](O)C[C@]2(C)[C@@]1(O)C(=O)COP(=O)(O)O [Compound 2, Betamethasone Phosphate]
  anti-inflammatory activity: has an anti-inflammatory activity
